Assay results: patent EP2061494B1
These are yes or no findings as the source states them, for the method shown. In cells and extracts the contact can be indirect. Some entries that bind do so weakly or less than the wild type.

Amino acid sequences for entries named in this document (tags omitted). Residues count along the entry.
UniProt P41240, residues 2-450: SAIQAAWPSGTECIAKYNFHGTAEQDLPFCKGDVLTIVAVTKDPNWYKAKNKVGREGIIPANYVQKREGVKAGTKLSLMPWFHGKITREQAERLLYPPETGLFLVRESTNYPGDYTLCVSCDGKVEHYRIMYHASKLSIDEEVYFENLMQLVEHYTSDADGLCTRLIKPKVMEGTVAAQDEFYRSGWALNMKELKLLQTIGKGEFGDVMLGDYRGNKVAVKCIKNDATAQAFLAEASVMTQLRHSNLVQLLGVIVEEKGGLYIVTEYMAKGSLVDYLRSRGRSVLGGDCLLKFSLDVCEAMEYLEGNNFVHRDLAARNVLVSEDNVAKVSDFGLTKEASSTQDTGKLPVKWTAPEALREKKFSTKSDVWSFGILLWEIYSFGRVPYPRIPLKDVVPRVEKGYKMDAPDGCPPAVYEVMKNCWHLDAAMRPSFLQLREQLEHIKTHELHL

Target: T1, p140Cap (endogenous protein of MCF7 human breast carcinoma cell extracts) (human) (UniProt Q9C0H9)
T1 sequence (looked up): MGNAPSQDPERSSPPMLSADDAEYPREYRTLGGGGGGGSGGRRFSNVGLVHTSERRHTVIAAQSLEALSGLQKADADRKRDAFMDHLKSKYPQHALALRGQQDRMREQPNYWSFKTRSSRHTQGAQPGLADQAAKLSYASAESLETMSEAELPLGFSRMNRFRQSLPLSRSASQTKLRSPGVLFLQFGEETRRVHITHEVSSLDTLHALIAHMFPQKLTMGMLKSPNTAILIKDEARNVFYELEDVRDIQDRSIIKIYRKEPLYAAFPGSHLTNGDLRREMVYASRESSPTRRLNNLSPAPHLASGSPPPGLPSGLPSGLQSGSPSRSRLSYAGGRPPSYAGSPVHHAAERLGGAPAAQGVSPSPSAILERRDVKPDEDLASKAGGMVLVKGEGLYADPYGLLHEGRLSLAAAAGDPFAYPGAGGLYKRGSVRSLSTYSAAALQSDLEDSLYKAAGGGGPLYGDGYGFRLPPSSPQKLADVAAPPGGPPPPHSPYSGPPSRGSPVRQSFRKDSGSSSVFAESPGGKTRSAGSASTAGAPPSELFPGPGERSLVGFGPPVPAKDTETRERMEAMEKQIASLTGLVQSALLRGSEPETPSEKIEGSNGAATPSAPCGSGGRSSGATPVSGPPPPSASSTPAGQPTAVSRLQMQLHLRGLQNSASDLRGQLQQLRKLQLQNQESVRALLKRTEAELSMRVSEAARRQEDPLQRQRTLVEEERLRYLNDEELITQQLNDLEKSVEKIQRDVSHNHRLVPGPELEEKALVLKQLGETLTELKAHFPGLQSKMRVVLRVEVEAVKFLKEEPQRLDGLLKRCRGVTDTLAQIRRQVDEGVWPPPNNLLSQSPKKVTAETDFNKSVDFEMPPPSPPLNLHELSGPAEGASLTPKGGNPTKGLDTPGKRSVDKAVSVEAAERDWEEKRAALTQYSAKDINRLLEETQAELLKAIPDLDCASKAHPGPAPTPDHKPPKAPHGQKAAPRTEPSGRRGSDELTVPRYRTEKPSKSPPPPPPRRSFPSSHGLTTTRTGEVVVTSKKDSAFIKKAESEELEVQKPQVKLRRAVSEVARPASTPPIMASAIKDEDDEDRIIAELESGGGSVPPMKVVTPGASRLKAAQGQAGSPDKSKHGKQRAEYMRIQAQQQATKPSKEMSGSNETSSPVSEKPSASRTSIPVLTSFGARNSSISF
Test: reciprocal co-immunoprecipitation from MCF7 extracts, western blot

binding: binds
Substance: C-terminal Src kinase (Csk), endogenous protein of MCF7 cells (from UniProt P41240 2-450) (enzyme)
